Results are given in words; binding and its absence hold for the method and conditions named. For part of these data: Binding seen in cells or lysates may run through a third protein. Some results given as binding are weak or reduced against the parent protein; the word gives no strength.
Key:
EB1-GFP = EB1-GFP (UniProt Q15691); assay: pull-down; purified GFP fusion (1 uM) incubated with TRIM37 (1 ug) 1 hr at 37°C, precipitated with GFP-Trap magnetic particles; washes 150 mM KCl, 25 mM HEPES, 1% glycerol, 0.05% NP-40, last wash 500 mM KCl; Western blot against TRIM37; both purified
[1] = molecular target: GFP-tagged Cep192 7KtoR from DLD-1 cells (UniProt Q8TEP8); assay: pull-down; GFP-Cep192 constructs expressed in DLD-1 cells, on GFP-Trap beads; TRIM37 detected; source of TRIM37 not told (Fig. S1E)
[2] = molecular target: GFP-tagged wild-type Cep192 (WT) from DLD-1 cells (UniProt Q8TEP8); assay: as above

Sequences of proteins named here, by UniProt entry; tags and fusion partners are left off. A change or cut given only in a name is not applied to a line headed by its entry. A line that says so, or that is headed by a name, gives the form on record, which may keep a tag or linker.
UniProt Q15691: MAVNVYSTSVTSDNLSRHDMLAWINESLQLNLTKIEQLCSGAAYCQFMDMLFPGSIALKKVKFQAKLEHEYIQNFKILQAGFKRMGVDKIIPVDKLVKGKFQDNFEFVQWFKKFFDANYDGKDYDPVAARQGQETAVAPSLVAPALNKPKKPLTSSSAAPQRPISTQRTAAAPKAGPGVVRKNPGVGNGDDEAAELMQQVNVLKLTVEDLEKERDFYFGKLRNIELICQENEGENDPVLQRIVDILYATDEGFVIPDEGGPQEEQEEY
UniProt Q8TEP8: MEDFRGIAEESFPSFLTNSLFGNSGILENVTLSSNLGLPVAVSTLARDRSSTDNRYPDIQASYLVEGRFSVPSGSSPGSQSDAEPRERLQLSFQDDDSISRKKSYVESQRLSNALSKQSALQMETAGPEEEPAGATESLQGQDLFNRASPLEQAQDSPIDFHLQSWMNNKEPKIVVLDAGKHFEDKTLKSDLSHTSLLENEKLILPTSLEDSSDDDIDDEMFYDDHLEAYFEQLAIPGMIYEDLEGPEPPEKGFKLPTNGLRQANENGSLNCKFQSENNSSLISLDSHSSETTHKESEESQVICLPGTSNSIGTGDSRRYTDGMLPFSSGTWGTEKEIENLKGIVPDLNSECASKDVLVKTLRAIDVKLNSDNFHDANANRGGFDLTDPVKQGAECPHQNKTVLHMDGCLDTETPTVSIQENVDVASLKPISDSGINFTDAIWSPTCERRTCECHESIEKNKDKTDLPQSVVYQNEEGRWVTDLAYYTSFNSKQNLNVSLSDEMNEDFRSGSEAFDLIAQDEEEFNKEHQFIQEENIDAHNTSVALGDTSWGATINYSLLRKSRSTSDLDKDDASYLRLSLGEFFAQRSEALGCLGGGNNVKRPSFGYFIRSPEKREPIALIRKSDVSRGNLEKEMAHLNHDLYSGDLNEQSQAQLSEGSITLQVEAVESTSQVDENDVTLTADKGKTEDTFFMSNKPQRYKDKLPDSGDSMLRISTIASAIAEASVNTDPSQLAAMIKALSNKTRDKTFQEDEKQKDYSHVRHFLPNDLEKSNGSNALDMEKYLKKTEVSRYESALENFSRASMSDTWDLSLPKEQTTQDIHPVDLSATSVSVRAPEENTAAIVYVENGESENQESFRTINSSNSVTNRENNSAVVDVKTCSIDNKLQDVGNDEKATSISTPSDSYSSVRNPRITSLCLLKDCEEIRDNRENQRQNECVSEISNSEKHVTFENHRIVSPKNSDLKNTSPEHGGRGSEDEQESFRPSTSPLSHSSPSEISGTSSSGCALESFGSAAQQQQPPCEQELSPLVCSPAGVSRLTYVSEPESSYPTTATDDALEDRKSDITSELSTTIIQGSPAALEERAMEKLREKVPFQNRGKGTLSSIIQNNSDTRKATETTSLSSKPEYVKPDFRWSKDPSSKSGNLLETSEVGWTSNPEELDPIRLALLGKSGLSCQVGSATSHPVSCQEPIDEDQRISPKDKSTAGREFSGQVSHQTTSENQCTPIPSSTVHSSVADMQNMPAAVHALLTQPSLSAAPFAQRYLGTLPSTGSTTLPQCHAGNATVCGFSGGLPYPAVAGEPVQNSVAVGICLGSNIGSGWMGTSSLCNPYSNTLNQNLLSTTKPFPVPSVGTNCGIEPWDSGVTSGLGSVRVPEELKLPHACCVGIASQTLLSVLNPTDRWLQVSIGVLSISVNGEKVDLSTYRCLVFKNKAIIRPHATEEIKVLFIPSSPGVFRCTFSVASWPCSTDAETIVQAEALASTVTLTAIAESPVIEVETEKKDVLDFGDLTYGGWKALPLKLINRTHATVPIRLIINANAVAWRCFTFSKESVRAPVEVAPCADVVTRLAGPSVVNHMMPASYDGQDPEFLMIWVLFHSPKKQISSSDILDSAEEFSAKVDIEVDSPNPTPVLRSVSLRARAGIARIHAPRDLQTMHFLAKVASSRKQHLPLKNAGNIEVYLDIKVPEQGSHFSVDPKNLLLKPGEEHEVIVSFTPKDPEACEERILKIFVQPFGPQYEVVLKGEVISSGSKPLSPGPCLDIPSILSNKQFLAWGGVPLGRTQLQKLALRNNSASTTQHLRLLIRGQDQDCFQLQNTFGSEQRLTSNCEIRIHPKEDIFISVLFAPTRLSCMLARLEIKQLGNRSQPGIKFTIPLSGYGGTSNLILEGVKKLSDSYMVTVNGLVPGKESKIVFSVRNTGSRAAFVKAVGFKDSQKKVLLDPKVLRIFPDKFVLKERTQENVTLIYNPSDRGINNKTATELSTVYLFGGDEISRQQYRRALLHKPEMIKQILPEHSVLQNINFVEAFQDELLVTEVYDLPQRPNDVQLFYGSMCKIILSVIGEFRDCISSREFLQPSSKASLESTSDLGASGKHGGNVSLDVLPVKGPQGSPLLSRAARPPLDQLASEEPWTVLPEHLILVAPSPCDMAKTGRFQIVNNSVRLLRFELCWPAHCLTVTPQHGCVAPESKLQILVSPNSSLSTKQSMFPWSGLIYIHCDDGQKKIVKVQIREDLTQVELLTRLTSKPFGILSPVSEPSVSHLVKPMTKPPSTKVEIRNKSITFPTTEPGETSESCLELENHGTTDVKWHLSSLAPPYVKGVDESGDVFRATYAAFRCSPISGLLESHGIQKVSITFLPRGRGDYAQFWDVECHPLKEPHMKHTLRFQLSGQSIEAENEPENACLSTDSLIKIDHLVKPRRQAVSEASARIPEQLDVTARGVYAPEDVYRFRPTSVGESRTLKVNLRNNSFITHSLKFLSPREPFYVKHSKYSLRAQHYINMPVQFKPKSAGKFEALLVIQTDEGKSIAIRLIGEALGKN
GFP-tagged Cep192 7KtoR from DLD-1 cells (Q8TEP8, form named): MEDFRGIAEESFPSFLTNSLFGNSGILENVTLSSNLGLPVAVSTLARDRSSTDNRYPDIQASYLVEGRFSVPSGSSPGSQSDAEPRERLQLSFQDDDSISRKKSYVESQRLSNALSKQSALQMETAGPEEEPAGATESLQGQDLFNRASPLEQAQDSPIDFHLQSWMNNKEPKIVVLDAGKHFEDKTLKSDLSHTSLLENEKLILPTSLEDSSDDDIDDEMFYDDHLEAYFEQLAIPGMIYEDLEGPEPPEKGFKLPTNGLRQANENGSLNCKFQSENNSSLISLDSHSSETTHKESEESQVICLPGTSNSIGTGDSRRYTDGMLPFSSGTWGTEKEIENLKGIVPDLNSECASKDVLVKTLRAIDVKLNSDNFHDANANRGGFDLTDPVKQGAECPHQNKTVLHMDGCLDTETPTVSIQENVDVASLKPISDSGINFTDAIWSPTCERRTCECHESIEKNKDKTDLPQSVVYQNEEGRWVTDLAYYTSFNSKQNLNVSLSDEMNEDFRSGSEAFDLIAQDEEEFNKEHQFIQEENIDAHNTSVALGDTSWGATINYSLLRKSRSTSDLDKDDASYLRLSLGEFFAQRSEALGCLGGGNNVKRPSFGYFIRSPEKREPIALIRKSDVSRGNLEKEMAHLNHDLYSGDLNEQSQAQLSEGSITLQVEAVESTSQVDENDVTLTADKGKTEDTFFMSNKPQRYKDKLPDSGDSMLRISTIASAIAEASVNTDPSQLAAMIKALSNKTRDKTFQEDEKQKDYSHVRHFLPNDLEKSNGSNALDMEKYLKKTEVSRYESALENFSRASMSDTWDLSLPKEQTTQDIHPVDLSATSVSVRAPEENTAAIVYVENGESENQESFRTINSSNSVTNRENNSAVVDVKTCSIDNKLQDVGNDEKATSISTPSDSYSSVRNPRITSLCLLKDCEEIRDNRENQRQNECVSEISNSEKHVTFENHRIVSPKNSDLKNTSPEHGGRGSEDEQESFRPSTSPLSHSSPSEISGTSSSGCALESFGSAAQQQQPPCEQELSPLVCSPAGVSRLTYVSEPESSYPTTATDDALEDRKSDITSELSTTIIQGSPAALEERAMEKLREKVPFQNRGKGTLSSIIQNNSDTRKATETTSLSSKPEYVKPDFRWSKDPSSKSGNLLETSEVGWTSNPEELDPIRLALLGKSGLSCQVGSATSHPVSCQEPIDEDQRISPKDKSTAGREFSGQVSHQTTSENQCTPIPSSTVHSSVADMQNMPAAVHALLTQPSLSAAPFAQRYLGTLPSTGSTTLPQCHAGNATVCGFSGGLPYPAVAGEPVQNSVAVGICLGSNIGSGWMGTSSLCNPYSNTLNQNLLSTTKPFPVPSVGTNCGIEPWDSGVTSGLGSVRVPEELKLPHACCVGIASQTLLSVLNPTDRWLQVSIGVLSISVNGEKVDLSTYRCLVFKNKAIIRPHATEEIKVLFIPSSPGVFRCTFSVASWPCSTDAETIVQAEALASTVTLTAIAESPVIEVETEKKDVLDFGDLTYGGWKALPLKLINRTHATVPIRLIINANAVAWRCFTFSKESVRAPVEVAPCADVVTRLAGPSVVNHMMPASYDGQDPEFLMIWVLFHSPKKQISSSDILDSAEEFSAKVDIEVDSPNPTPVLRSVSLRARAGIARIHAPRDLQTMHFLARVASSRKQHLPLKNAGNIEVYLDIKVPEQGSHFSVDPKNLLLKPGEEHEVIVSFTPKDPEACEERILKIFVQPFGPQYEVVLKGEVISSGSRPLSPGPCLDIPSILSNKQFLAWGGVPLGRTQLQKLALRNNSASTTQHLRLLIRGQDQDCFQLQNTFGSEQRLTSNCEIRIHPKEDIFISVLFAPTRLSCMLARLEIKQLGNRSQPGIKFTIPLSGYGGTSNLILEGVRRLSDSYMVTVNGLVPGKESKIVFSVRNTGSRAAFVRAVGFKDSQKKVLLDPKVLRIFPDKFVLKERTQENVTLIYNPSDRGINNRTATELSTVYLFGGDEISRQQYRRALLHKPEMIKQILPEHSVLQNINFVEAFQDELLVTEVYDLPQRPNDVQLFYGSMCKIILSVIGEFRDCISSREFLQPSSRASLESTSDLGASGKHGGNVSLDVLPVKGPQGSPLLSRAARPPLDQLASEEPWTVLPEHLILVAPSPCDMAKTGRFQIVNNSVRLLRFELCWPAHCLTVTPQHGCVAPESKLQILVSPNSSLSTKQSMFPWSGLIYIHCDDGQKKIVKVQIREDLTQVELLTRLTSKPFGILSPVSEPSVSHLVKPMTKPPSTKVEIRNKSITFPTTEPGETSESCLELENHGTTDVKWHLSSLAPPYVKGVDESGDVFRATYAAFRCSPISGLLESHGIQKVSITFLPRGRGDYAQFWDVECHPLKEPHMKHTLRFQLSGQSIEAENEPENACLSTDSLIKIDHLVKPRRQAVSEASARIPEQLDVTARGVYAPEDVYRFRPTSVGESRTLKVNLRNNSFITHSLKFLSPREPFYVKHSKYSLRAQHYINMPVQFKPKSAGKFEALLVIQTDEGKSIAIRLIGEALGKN
UniProt O94972: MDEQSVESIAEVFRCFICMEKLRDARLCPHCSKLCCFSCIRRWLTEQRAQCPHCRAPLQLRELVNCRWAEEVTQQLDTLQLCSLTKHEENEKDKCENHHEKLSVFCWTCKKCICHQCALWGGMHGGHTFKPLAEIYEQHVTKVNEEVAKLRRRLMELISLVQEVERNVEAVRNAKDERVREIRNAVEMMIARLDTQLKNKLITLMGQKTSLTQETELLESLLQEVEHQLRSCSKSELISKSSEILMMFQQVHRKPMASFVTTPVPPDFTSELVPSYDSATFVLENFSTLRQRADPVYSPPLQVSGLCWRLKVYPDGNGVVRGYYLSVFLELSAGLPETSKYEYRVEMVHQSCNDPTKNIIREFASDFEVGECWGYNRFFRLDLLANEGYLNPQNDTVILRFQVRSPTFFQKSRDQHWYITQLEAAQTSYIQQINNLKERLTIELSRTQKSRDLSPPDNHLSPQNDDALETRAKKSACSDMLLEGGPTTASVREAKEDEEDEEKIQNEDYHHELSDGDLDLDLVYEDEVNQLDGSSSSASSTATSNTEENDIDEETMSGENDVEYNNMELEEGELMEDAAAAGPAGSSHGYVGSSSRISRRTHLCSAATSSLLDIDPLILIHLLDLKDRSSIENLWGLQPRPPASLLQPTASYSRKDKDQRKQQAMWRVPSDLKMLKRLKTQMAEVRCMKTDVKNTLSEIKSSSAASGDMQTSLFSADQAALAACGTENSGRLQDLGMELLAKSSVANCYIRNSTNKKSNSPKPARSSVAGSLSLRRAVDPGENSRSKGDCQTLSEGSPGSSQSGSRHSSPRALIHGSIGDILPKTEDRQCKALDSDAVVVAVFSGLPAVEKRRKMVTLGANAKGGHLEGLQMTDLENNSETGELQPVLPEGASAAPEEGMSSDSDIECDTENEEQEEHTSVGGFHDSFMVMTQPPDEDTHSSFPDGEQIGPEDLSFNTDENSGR

| binding [1] | binding [2] | Substance | binding (EB1-GFP) |
| --- | --- | --- | --- |
|  |  | TRIM37 (from UniProt O94972 1-964) | no binding (tested: 1 μM EB1, 1 μg TRIM37) |
| binds | binds | TRIM37 pulled down by GFP-Cep192 constructs from DLD-1 cells (Fig. S1E) (from UniProt O94972 1-964) |  |

Source: paper doi:10.64898/2025.12.19.695442
